From ChEMBL document CHEMBL5674883, “The Heterochromatin Landscape in Migrating Cells and the Importance of H3K27me3 for Associated Transcriptome Alterations” (Cells, 2018)
The source gives many values for each of these; only a part stands here.

The chains behind the UniProt entries cited, without tags or fusion partners.
UniProt Q61188, whole entry: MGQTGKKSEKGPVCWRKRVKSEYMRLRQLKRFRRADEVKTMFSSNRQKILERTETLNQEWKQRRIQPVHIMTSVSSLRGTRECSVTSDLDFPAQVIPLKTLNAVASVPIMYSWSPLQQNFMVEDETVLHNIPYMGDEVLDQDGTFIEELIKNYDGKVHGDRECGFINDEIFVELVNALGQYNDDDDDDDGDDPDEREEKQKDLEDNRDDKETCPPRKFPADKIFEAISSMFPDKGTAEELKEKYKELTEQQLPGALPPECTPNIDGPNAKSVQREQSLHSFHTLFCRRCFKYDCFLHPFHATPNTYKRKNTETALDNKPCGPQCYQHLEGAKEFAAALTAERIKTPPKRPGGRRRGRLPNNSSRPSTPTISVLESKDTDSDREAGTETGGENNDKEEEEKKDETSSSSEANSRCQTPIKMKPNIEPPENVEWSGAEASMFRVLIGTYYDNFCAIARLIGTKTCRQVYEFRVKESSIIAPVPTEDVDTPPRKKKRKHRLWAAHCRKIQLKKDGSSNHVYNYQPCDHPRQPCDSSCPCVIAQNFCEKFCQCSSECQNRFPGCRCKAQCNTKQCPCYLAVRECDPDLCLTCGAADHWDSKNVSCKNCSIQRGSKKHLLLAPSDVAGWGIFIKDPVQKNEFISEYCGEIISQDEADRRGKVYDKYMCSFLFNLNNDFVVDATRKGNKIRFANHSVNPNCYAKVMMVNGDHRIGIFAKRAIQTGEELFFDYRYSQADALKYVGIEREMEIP

Assays:
Assay type in all cases: cell-based
[1] = molecular target: T1, RNA polymerase II (Mus musculus) (UniProt P08775+Q8CFI7+P97760+A0A3Q4L2S8+Q80UW8+P61219+P62488+Q923G2+P60898+O08740+Q63871+P62876); assay: Inhibition of RNA polymerase II in mouse B16-F1 migrating cells assessed as fold change in Anp32e-RNA stability at 0.1 mM measured by ChIP-seq analysis relative to control cells
[2] = molecular target: T1, RNA polymerase II (Mus musculus); assay: Inhibition of RNA polymerase II in mouse B16-F1 migrating cells assessed as fold change in Tmem134-RNA stability at 0.1 mM measured by ChIP-seq analysis relative to control cells
[3] = molecular target: T1, RNA polymerase II (Mus musculus); assay: Inhibition of RNA polymerase II in mouse B16-F1 migrating cells assessed as fold change in Hat1-RNA stability at 0.1 mM measured by ChIP-seq analysis relative to control cells
[4] = molecular target: T1, RNA polymerase II (Mus musculus); assay: Inhibition of RNA polymerase II in mouse B16-F1 migrating cells assessed as fold change in Kdelc2-RNA stability at 0.1 mM measured by ChIP-seq analysis relative to control cells
[5] = molecular target: T1, RNA polymerase II (Mus musculus); assay: Inhibition of RNA polymerase II in mouse B16-F1 migrating cells assessed as fold change in Zbtb1-RNA stability at 0.1 mM measured by ChIP-seq analysis relative to control cells
[6] = molecular target: T1, RNA polymerase II (Mus musculus); assay: Inhibition of RNA polymerase II in mouse B16-F1 migrating cells assessed as fold change in Otud4-RNA stability at 0.1 mM measured by ChIP-seq analysis relative to control cells
[7] = molecular target: T1, RNA polymerase II (Mus musculus); assay: Inhibition of RNA polymerase II in mouse B16-F1 migrating cells assessed as fold change in Trim59-RNA stability at 0.1 mM measured by ChIP-seq analysis relative to control cells
[8] = molecular target: T1, RNA polymerase II (Mus musculus); assay: Inhibition of RNA polymerase II in mouse B16-F1 migrating cells assessed as fold change in Bclaf1-RNA stability at 0.1 mM measured by ChIP-seq analysis relative to control cells
[9] = molecular target: T1, RNA polymerase II (Mus musculus); assay: Inhibition of RNA polymerase II in mouse B16-F1 migrating cells assessed as fold change in Zfp580-RNA stability at 0.1 mM measured by ChIP-seq analysis relative to control cells
[10] = molecular target: T1, RNA polymerase II (Mus musculus); assay: Inhibition of RNA polymerase II in mouse B16-F1 migrating cells assessed as fold change in Prelid2-RNA stability at 0.1 mM measured by ChIP-seq analysis relative to control cells
[11] = molecular target: T1, RNA polymerase II (Mus musculus); assay: Inhibition of RNA polymerase II in mouse B16-F1 migrating cells assessed as fold change in Gnl1-RNA stability at 0.1 mM measured by ChIP-seq analysis relative to control cells
[12] = molecular target: T1, RNA polymerase II (Mus musculus); assay: Inhibition of RNA polymerase II in mouse B16-F1 migrating cells assessed as fold change in 5730455P16Rik-RNA stability at 0.1 mM measured by ChIP-seq analysis relative to control cells
[13] = molecular target: T1, RNA polymerase II (Mus musculus); assay: Inhibition of RNA polymerase II in mouse B16-F1 migrating cells assessed as fold change in Slc19a2-RNA stability at 0.1 mM measured by ChIP-seq analysis relative to control cells
[14] = molecular target: T1, RNA polymerase II (Mus musculus); assay: Inhibition of RNA polymerase II in mouse B16-F1 migrating cells assessed as fold change in Anxa2-RNA stability at 0.1 mM measured by ChIP-seq analysis relative to control cells
[15] = molecular target: T1, RNA polymerase II (Mus musculus); assay: Inhibition of RNA polymerase II in mouse B16-F1 migrating cells assessed as fold change in Mpp2-RNA stability at 0.1 mM measured by ChIP-seq analysis relative to control cells
[16] = molecular target: T1, RNA polymerase II (Mus musculus); assay: Inhibition of RNA polymerase II in mouse B16-F1 migrating cells assessed as fold change in Nbeal1-RNA stability at 0.1 mM measured by ChIP-seq analysis relative to control cells
[17] = molecular target: T1, RNA polymerase II (Mus musculus); assay: Inhibition of RNA polymerase II in mouse B16-F1 migrating cells assessed as fold change in Rif1-RNA stability at 0.1 mM measured by ChIP-seq analysis relative to control cells
[18] = molecular target: T1, RNA polymerase II (Mus musculus); assay: Inhibition of RNA polymerase II in mouse B16-F1 migrating cells assessed as fold change in Ubl3-RNA stability at 0.1 mM measured by ChIP-seq analysis relative to control cells
[19] = molecular target: T1, RNA polymerase II (Mus musculus); assay: Inhibition of RNA polymerase II in mouse B16-F1 migrating cells assessed as fold change in Plin2-RNA stability at 0.1 mM measured by ChIP-seq analysis relative to control cells
[20] = molecular target: T1, RNA polymerase II (Mus musculus); assay: Inhibition of RNA polymerase II in mouse B16-F1 migrating cells assessed as fold change in Alcam-RNA stability at 0.1 mM measured by ChIP-seq analysis relative to control cells
[21] = molecular target: T1, RNA polymerase II (Mus musculus); assay: Inhibition of RNA polymerase II in mouse B16-F1 migrating cells assessed as fold change in Lrrcc1-RNA stability at 0.1 mM measured by ChIP-seq analysis relative to control cells
[22] = molecular target: Histone-lysine N-methyltransferase EZH2 (Mus musculus) (UniProt Q61188); assay: Inhibition of EZH2 in mouse B16-F1 migrating cells assessed as fold change in H3K27me3-buffered regulated Kif15-mRNA expression at 3 uM measured by ChIP-seq analysis relative to control cells
[23] = molecular target: Histone-lysine N-methyltransferase EZH2 (Mus musculus) (UniProt Q61188); assay: Inhibition of EZH2 in mouse B16-F1 migrating cells assessed as fold change in H3K27me3-buffered regulated Cenpc1-mRNA expression at 3 uM measured by ChIP-seq analysis relative to control cells
[24] = molecular target: Histone-lysine N-methyltransferase EZH2 (Mus musculus) (UniProt Q61188); assay: Inhibition of EZH2 in mouse B16-F1 migrating cells assessed as fold change in H3K27me3-buffered regulated Zfp40-mRNA expression at 3 uM measured by ChIP-seq analysis relative to control cells
[25] = molecular target: Histone-lysine N-methyltransferase EZH2 (Mus musculus) (UniProt Q61188); assay: Inhibition of EZH2 in mouse B16-F1 migrating cells assessed as fold change in H3K27me3-buffered regulated Pank4-mRNA expression at 3 uM measured by ChIP-seq analysis relative to control cells
[26] = molecular target: Histone-lysine N-methyltransferase EZH2 (Mus musculus) (UniProt Q61188); assay: Inhibition of EZH2 in mouse B16-F1 migrating cells assessed as fold change in H3K27me3-buffered regulated Rras-mRNA expression at 3 uM measured by ChIP-seq analysis relative to control cells
[27] = molecular target: Histone-lysine N-methyltransferase EZH2 (Mus musculus) (UniProt Q61188); assay: Inhibition of EZH2 in mouse B16-F1 migrating cells assessed as fold change in H3K27me3-buffered regulated Rps6ka2-mRNA expression at 3 uM measured by ChIP-seq analysis relative to control cells
[28] = molecular target: Histone-lysine N-methyltransferase EZH2 (Mus musculus) (UniProt Q61188); assay: Inhibition of EZH2 in mouse B16-F1 migrating cells assessed as fold change in H3K27me3-buffered regulated Hist1h1c-mRNA expression at 3 uM measured by ChIP-seq analysis relative to control cells
[29] = molecular target: Histone-lysine N-methyltransferase EZH2 (Mus musculus) (UniProt Q61188); assay: Inhibition of EZH2 in mouse B16-F1 migrating cells assessed as fold change in H3K27me3-independent regulated Higd1a-mRNA expression at 3 uM measured by ChIP-seq analysis relative to control cells
[30] = molecular target: Histone-lysine N-methyltransferase EZH2 (Mus musculus) (UniProt Q61188); assay: Inhibition of EZH2 in mouse B16-F1 migrating cells assessed as fold change in H3K27me3-buffered regulated Cyp26b1-mRNA expression at 3 uM measured by ChIP-seq analysis relative to control cells

OC[C@H]1O[C@@H](n2cnc3cc(Cl)c(Cl)cc32)[C@H](O)[C@@H]1O
log2FC [1]: -0.46 | log2FC [2]: 0.57 | log2FC [3]: -0.53 | log2FC [4]: -0.69 | log2FC [5]: -0.67 | log2FC [6]: -0.69 | log2FC [7]: -0.72 | log2FC [8]: -0.85 | log2FC [9]: 0.66 | log2FC [10]: 0.81 | log2FC [11]: 0.45 | log2FC [12]: -0.55 | log2FC [13]: -1.08 | log2FC [14]: 0.57 | log2FC [15]: 1.03 | log2FC [16]: -0.5 | log2FC [17]: -1.01 | log2FC [18]: -0.49 | log2FC [19]: 0.49 | log2FC [20]: -0.66 | log2FC [21]: -0.85

CCCc1cc(C)[nH]c(=O)c1CNC(=O)c1cc(-c2ccnc(N3CCN(C)CC3)c2)cc2c1cnn2C(C)C
log2FC [22]: -0.5 | log2FC [23]: -0.43 | log2FC [24]: -0.65 | log2FC [25]: -0.51 | log2FC [26]: 0.45 | log2FC [27]: 0.51 | log2FC [28]: 0.43 | log2FC [29]: 0.42 | log2FC [30]: -0.68
